These are yes or no findings as the source states them, for the method shown. Binding seen in cells or lysates may run through a third protein. Here binding means that the protein was enriched with, or labelled near, the bait; the list need not be complete.

From PMC8847397 come the findings set out here.

In this experiment the target is T1, endogenous SENP1 (SUMO-specific protease 1) in Jurkat E6.1 T cells (human (endogenous in Jurkat E6.1)) (UniProt Q9P0U3).
T1 sequence: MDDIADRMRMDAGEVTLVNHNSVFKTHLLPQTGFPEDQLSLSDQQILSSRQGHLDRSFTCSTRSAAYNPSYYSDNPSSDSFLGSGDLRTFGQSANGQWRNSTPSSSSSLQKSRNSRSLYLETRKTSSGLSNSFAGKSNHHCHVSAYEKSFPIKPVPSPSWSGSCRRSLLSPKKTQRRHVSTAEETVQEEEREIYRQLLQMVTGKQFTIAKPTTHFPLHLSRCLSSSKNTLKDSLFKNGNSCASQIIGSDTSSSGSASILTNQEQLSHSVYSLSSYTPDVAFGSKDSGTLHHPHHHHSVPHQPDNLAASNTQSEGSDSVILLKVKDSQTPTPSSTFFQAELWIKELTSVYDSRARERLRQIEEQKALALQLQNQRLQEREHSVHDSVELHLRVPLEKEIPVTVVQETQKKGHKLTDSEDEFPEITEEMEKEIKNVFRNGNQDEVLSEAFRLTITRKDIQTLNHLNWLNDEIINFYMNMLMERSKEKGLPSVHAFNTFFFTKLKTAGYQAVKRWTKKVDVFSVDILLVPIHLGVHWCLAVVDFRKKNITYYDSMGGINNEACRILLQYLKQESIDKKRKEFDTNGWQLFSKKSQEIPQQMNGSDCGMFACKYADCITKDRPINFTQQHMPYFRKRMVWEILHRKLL
Put plainly: affinity purification with mass spectrometry; immunoprecipitation with SENP1 antibody from Jurkat E6.1 T cells, SDS-PAGE, gel bands excised, tryptic digestion, LC-MS/MS.

In the case of “endogenous Lck in Jurkat E6.1 T cells (from UniProt P06239-1 1-509) (enzyme)”, the binding result is reported as “binds”.
